{
  "source": "patent US5597705",
  "test_system": "thyroid hormone (T3) receptor, GC2 nuclear extract (Rattus norvegicus)",
  "assay": "footprint",
  "conditions": "DNase I protection of antisense strand -179 to -164 with crude GC2 nuclear extract; protein in an extract",
  "note": "Construct, isoform or probe ends are uncertain for at least one entry. At least one result comes from cells or an extract, where the contact may be indirect.",
  "data": [
    {"sequence": "CAGGGACGTGACCGCA (double strand) [rat GH T3 receptor footprint -179 to -164]", "values": [
      {"measurement": "binding result", "result": "binds"}
    ]}
  ]
}
